Tested on: PKC
Assay: PKC kinase activity assay kit (Assay Designs)
Type: biochemical
Settings: PKC 10 ng/well
Description: A PKC kinase activity assay kit (Assay Designs, Ann Arbor, Mich.) was used to test endoxifen PKC inhibitory activity 0.025, 0.05, 0.1, or 0.2 mM endoxifen was used in a reaction mix containing PKC 10 ng/well. Tamoxifen in same concentration was used as a positive control. Endoxifen inhibited PKC activity in concentration dependent manner. The percentage PKC inhibition ranged between 12 and 80 with endoxifen concentration between 0.025 and 0.2 mM, respectively.

- percentage PKC inhibition (0.025 mM): negligible PKC inhibition
- percentage PKC inhibition (0.05 mM): negligible PKC inhibition
- percentage PKC inhibition (0.1 mM): 35%
- percentage PKC inhibition (0.2 mM): 25%
Structure (SMILES): CC/C(=C(\c1ccccc1)c1ccc(OCCN(C)C)cc1)c1ccccc1 [tamoxifen]

— patent US11672758B2, “Endoxifen methods and compositions for inhibition of protein kinase C” (Jina Pharmaceuticals, Inc., priority 2006, dated 2023)
